Reference: PubChem BioAssay AID652243 (Drosophila RNAi Screening Center, 2013)
Test: 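Fly regulators of androgen-dependent reporter output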 (primary screen). Cells: Drosophila S2R+ cells. Reagent: long dsRNA against Drosophila genes. Time to read-out: 72 h (48 h, then 24 h hormone). Challenge: synthetic androgen R1881 at 10 nM for 24 h. Read-out: 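Per-well raw luminescence of the androgen-driven firefly reporter and of the Renilla control, two replicates each, without normalisation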. Direction: firefly reporter light: higher = more light from androgen-responsive reporter; Renilla control light: higher = more constitutive control signal (cell number, transfection). Rule for the call: 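Across duplicate plates, a knock-down whose log firefly/Renilla ratio shifted a set fold down or up from the GFP/LacZ control mean was a hit; the downward cut appears as both 1.5 and 3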. Calls: active = hit: reporter lowered or raised; inactive = no hit.
The screen tested about 24,000 reagents; this is an unselected part of those with a known target gene and a result. In the full data, 246 (1%) are marked active. 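Plates not normalised; calls are printed but the firefly/Renilla ratio behind them is not deposited; fold cut for lowering reported inconsistently.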 The raw values are shown without normalisation. Unmarked entries are inactive. The numbers tell different reagents against one gene apart. The record does not give: the amount of reagent.

Depletion of CG10907 resulted in: firefly reporter light, replicate 1 = 1.85e5; firefly reporter light, replicate 2 = 1.93e5; Renilla control light, replicate 1 = 1.91e6; Renilla control light, replicate 2 = 1.53e6. For CG4836 #1, the values are firefly reporter light, replicate 1 = 79409; firefly reporter light, replicate 2 = 74528; Renilla control light, replicate 1 = 8.87e5; Renilla control light, replicate 2 = 7.18e5. With knock-down of CG4836 #2, the screen gave firefly reporter light, replicate 1 = 5.85e5; firefly reporter light, replicate 2 = 6.04e5; Renilla control light, replicate 1 = 2.10e6; Renilla control light, replicate 2 = 1.38e6. Silencing of CG4836 #3 gave: firefly reporter light, replicate 1 = 7.31e5; firefly reporter light, replicate 2 = 8.04e5; Renilla control light, replicate 1 = 6.41e5; Renilla control light, replicate 2 = 7.15e5. Against CG15888 #1, the values are firefly reporter light, replicate 1 = 1.06e5; firefly reporter light, replicate 2 = 1.29e5; Renilla control light, replicate 1 = 1.38e6; Renilla control light, replicate 2 = 1.76e6. For CG15888 #2, the values are firefly reporter light, replicate 1 = 2.58e5; firefly reporter light, replicate 2 = 2.18e5; Renilla control light, replicate 1 = 6.38e5; Renilla control light, replicate 2 = 6.50e5.

CG13250 #1 showed firefly reporter light, replicate 1 = 3.63e5; firefly reporter light, replicate 2 = 2.21e5; Renilla control light, replicate 1 = 2.61e6; Renilla control light, replicate 2 = 2.25e6. After knock-down of CG13250 #2, the record shows firefly reporter light, replicate 1 = 2.69e5; firefly reporter light, replicate 2 = 2.84e5; Renilla control light, replicate 1 = 4.13e5; Renilla control light, replicate 2 = 7.66e5. Against mRpS34 (mitochondrial ribosomal protein S34) #1, the values are firefly reporter light, replicate 1 = 2.05e5; firefly reporter light, replicate 2 = 2.04e5; Renilla control light, replicate 1 = 1.46e6; Renilla control light, replicate 2 = 1.65e6. After knock-down of mRpS34 (mitochondrial ribosomal protein S34) #2, the record shows firefly reporter light, replicate 1 = 6.46e5; firefly reporter light, replicate 2 = 3.96e5; Renilla control light, replicate 1 = 1.13e6; Renilla control light, replicate 2 = 1.15e6. Silencing of CG16727 #1 came out at: firefly reporter light, replicate 1 = 3.04e5; firefly reporter light, replicate 2 = 2.85e5; Renilla control light, replicate 1 = 3.44e6; Renilla control light, replicate 2 = 3.77e6. For CG16727 #2, the values are firefly reporter light, replicate 1 = 3.88e5; firefly reporter light, replicate 2 = 4.14e5; Renilla control light, replicate 1 = 6.86e5; Renilla control light, replicate 2 = 7.07e5.

Already shown: entries from further up.
mRpS34 (mitochondrial ribosomal protein S34) #2 → firefly reporter light, replicate 1: 6.46e5; firefly reporter light, replicate 2: 3.96e5; Renilla control light, replicate 1: 1.13e6; Renilla control light, replicate 2: 1.15e6
CG16727 #1 → firefly reporter light, replicate 1: 3.04e5; firefly reporter light, replicate 2: 2.85e5; Renilla control light, replicate 1: 3.44e6; Renilla control light, replicate 2: 3.77e6
CG16727 #2 → firefly reporter light, replicate 1: 3.88e5; firefly reporter light, replicate 2: 4.14e5; Renilla control light, replicate 1: 6.86e5; Renilla control light, replicate 2: 7.07e5

The list goes on.
CG3223 #1 gave firefly reporter light, replicate 1 = 91002; firefly reporter light, replicate 2 = 1.25e5; Renilla control light, replicate 1 = 1.48e6; Renilla control light, replicate 2 = 1.48e6. CG3223 #2 gave firefly reporter light, replicate 1 = 3.67e5; firefly reporter light, replicate 2 = 5.27e5; Renilla control light, replicate 1 = 1.28e6; Renilla control light, replicate 2 = 2.19e6. Against nocte (no circadian temperature entrainment) #1 the deposit lists firefly reporter light, replicate 1 = 61947; firefly reporter light, replicate 2 = 1.07e5; Renilla control light, replicate 1 = 6.02e5; Renilla control light, replicate 2 = 6.11e5. Depletion of nocte (no circadian temperature entrainment) #2 came out at: firefly reporter light, replicate 1 = 3.09e5; firefly reporter light, replicate 2 = 4.84e5; Renilla control light, replicate 1 = 4.43e5; Renilla control light, replicate 2 = 7.95e5. Knock-down of CG5265 resulted in: firefly reporter light, replicate 1 = 1.38e5; firefly reporter light, replicate 2 = 1.61e5; Renilla control light, replicate 1 = 2.53e6; Renilla control light, replicate 2 = 2.28e6. Knock-down of bchs (blue cheese) gave: firefly reporter light, replicate 1 = 1.10e5; firefly reporter light, replicate 2 = 77830; Renilla control light, replicate 1 = 9.08e5; Renilla control light, replicate 2 = 8.47e5.

Against CG8745 #1 the deposit lists firefly reporter light, replicate 1 = 7.68e5; firefly reporter light, replicate 2 = 4.50e5; Renilla control light, replicate 1 = 6.73e5; Renilla control light, replicate 2 = 8.84e5. Depletion of CG8745 #2 resulted in: firefly reporter light, replicate 1 = 2.95e5; firefly reporter light, replicate 2 = 2.92e5; Renilla control light, replicate 1 = 3.80e6; Renilla control light, replicate 2 = 3.19e6. After knock-down of CG8745 #3 the results were firefly reporter light, replicate 1 = 1.08e6; firefly reporter light, replicate 2 = 7.37e5; Renilla control light, replicate 1 = 1.11e6; Renilla control light, replicate 2 = 8.27e5.
